Experimental data published in the supplement of paper PMC10849652.
This is one part of the list.

Chains of the proteins cited; added tags and fusions are not shown. Lines headed by an entry give the natural chain unless they say otherwise; changes in a name come on top.
UniProt Q9P0P0: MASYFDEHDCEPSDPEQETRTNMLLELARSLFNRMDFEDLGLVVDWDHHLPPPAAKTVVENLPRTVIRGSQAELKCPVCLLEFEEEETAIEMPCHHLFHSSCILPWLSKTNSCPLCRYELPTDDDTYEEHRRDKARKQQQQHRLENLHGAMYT
UniProt Q9NPQ8: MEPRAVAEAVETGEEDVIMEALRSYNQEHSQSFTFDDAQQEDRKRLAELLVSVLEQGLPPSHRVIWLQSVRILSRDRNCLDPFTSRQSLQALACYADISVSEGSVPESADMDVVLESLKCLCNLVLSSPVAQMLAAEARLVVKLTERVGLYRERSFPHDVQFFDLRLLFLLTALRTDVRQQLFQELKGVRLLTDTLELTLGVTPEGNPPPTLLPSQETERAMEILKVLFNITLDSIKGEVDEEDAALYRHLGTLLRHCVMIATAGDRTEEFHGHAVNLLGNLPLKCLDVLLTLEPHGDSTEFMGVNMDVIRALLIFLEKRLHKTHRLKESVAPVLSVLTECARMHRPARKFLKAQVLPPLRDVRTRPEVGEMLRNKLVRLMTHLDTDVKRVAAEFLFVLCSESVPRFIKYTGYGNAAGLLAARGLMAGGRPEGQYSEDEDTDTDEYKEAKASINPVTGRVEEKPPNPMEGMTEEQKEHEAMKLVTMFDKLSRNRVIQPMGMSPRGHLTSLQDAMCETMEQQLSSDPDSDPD
UniProt Q86VR2, whole entry, looked up: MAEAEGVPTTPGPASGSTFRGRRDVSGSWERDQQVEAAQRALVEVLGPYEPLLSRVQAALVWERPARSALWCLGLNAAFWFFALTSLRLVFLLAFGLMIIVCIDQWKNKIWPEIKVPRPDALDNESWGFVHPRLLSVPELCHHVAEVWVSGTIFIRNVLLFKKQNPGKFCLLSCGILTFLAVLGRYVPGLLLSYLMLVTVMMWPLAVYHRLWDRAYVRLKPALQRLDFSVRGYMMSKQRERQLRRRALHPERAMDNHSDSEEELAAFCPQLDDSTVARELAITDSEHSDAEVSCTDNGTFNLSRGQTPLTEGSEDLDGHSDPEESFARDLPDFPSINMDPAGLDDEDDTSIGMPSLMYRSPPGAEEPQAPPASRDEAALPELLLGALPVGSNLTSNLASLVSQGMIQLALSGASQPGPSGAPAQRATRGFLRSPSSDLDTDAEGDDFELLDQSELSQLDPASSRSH
UniProt Q02094: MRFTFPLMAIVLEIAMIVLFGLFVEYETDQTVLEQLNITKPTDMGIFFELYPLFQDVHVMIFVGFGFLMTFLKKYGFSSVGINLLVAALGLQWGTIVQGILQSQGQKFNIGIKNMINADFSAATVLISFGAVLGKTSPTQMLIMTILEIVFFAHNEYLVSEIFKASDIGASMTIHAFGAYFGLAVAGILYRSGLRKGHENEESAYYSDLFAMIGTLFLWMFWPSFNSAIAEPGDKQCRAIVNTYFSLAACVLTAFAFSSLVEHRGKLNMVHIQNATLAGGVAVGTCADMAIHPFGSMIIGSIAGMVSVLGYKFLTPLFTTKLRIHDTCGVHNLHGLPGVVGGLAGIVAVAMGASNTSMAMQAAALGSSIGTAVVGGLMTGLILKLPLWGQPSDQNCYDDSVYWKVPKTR
UniProt Q9BTD8: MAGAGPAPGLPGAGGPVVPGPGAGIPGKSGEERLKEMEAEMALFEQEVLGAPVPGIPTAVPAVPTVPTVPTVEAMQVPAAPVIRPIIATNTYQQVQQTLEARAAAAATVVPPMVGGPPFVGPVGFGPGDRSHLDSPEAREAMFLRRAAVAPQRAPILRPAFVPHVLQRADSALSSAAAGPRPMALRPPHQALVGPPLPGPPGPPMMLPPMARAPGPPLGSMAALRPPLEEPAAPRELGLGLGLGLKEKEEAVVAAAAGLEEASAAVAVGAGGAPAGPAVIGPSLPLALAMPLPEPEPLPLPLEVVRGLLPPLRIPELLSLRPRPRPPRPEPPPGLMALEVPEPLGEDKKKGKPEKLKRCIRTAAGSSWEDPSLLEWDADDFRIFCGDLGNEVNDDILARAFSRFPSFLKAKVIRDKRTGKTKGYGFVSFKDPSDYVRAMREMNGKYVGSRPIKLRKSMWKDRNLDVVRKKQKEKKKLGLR
UniProt Q5TA31: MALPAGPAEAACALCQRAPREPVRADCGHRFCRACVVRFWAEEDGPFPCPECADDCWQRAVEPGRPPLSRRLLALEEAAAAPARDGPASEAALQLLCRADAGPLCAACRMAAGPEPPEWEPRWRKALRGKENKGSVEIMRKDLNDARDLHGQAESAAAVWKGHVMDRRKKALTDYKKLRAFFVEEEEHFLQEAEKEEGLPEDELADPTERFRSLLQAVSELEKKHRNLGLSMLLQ
UniProt P52758: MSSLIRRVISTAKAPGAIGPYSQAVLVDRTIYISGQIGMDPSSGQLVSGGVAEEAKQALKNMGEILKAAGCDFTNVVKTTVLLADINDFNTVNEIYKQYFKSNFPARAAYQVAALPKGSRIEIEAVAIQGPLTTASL
UniProt Q06330: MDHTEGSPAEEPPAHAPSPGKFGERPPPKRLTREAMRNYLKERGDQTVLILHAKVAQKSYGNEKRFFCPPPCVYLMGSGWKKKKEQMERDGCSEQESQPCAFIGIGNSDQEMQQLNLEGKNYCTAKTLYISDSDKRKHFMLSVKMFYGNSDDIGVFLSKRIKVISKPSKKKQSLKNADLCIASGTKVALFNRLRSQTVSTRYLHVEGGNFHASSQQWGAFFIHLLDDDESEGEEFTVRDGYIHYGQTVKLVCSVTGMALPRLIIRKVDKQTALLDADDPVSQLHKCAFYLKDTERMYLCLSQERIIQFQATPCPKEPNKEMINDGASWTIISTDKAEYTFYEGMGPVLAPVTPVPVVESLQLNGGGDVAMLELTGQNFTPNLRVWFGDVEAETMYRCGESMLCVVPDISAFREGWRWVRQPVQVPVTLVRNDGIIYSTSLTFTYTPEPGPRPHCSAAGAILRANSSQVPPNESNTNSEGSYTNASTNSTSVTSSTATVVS
UniProt Q9Y2P8: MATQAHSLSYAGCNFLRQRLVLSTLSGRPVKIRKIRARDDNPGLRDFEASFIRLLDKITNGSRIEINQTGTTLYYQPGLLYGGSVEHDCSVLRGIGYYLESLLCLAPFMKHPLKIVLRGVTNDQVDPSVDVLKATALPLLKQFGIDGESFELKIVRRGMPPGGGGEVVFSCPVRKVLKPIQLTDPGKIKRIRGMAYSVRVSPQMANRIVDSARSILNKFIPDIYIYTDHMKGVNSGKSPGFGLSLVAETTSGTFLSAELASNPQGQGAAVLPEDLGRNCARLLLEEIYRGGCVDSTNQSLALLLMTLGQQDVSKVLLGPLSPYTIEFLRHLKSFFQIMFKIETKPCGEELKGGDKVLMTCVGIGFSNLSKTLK
UniProt Q9BRS2: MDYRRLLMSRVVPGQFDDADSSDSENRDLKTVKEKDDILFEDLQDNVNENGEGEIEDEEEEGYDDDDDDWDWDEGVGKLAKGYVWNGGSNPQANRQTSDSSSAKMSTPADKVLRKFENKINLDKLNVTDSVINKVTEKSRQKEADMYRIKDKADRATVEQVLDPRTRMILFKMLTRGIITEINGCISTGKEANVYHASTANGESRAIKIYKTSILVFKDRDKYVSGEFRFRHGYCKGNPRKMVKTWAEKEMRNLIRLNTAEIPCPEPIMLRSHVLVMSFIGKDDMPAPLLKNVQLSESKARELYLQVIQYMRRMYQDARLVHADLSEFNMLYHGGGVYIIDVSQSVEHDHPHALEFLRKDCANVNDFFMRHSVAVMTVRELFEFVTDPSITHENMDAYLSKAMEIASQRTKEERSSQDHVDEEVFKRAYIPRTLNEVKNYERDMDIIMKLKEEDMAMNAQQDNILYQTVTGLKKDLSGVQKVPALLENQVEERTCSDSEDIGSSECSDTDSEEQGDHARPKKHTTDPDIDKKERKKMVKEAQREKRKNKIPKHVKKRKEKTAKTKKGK
UniProt Q9H920: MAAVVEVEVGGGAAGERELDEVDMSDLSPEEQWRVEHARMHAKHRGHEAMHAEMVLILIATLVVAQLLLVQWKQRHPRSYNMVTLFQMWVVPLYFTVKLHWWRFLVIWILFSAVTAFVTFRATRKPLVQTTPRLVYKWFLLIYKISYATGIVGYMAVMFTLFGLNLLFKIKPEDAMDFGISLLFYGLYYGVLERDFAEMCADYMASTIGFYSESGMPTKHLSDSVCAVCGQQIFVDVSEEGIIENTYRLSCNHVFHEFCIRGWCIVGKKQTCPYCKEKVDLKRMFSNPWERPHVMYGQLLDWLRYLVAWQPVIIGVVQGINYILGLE
UniProt P38159: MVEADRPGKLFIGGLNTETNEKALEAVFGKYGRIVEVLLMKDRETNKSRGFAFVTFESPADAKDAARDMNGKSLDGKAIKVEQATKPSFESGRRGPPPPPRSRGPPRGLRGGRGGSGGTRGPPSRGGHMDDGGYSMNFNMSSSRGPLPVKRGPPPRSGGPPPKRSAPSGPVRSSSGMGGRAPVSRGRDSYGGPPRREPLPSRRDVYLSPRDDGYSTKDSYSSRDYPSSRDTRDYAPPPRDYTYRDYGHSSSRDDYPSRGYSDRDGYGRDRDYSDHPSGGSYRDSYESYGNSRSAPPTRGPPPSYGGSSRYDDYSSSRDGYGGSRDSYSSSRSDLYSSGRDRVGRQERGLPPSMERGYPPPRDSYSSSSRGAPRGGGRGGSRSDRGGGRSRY
UniProt Q8IZV5: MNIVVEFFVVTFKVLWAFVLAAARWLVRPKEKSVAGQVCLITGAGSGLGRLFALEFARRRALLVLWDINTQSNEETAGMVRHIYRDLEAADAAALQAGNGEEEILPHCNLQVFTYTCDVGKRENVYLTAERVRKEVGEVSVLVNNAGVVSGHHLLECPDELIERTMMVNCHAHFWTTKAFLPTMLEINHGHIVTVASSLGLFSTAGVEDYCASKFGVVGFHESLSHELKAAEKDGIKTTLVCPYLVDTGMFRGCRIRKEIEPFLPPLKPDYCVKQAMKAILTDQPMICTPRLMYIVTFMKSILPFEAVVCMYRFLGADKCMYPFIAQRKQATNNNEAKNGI
UniProt P46063: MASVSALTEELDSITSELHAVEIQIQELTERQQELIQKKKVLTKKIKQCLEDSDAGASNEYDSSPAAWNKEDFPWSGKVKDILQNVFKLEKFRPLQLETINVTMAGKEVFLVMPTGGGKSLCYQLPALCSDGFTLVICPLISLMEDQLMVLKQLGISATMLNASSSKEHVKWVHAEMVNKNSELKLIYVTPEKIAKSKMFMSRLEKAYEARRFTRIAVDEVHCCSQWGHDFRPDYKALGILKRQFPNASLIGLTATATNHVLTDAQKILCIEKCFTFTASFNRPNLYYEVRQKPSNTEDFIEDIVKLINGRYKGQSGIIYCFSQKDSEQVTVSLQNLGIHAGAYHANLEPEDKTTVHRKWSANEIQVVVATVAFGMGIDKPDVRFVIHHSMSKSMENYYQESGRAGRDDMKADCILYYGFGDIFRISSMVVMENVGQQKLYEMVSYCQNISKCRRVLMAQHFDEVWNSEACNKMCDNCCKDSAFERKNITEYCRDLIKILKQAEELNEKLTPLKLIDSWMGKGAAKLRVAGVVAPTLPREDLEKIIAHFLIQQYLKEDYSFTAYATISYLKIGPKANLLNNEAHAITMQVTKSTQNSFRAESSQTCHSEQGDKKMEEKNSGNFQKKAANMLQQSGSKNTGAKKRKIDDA
UniProt Q8NC42: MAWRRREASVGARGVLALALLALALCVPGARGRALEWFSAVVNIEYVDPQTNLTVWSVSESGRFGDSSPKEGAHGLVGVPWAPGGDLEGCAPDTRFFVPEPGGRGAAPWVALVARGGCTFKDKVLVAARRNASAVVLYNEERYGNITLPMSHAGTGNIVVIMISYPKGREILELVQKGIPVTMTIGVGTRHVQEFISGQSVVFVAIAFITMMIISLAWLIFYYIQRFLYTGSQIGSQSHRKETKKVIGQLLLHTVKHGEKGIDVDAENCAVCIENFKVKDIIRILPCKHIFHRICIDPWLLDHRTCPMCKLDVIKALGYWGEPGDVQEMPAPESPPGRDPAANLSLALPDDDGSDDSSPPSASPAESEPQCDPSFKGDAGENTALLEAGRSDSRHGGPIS

What was measured:
Experiment in all cases: log2 fold change, soluble protein after heating vs DMSO (PISA); higher = thermal stabilisation; K562 cells, 10 uM, 30 min; active = over 0.2 and 3.5 SD of the protein, either way, in both replicates (recomputed)
bafetinib = compound: Cc1ccc(NC(=O)c2ccc(CN3CC[C@H](N(C)C)C3)c(C(F)(F)F)c2)cc1Nc1nccc(-c2cncnc2)n1 [bafetinib]
In short: (§1)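 Quantification of soluble protein used TMTpro 16plex LC-MS/MS, with channel sums equalised. Samples were the supernatant after 21,000xg for 90 min of pooled aliquots from K562 cells (2×10^6 cells/mL) treated with 10 μM compound for 30 min, heated for 3 min over 48°C-58°C, and extracted in PBS with 0.5% NP-40 at 4°C. Values, from duplicates, describe thermal stability against control samples on a log2 fold-change scale.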

[1] = compound: Cc1cccc(CC(=O)N2CCc3c2ccc(-c2cn(C)c4ncnc(N)c24)c3F)n1
In short: as §1

nilotinib = compound: Cc1cn(-c2cc(NC(=O)c3ccc(C)c(Nc4nccc(-c5cccnc5)n4)c3)cc(C(F)(F)F)c2)cn1 [nilotinib]
In short: as §1

[2] = compound: Cc1nc(Nc2n[nH]c3c2CN(C(=O)N[C@H](CN(C)C)c2ccccc2)C3(C)C)c2sccc2n1
In short: as §1

dasatinib = compound: Cc1nc(Nc2ncc(C(=O)Nc3c(C)cccc3Cl)s2)cc(N2CCN(CCO)CC2)n1 [dasatinib]
In short: as §1

[3] = compound: Cc1ncc(-c2ccnc(Nc3ccc(S(C)(=O)=O)cc3)n2)n1C(C)C
In short: as §1

[4] = compound: Cn1cc(-c2ccc3c(c2)CCN3C(=O)Cc2cccc(C(F)(F)F)c2)c2c(N)ncnc21
In short: as §1

[5] = compound: Cn1cc(-c2ccc3nnc(C(F)(F)c4ccc5ncccc5c4)n3n2)cn1
In short: as §1

tipifarnib = compound: Cn1cncc1[C@@](N)(c1ccc(Cl)cc1)c1ccc2c(c1)c(-c1cccc(Cl)c1)cc(=O)n2C [tipifarnib]
In short: as §1

mubritinib = compound: FC(F)(F)c1ccc(/C=C/c2nc(COc3ccc(CCCCn4ccnn4)cc3)co2)cc1 [mubritinib]
In short: as §1

[6] = compound: NC(=O)Nc1cc(-c2cccc(F)c2)sc1C(=O)N[C@H]1CCCNC1
In short: as §1

[7] = compound: NC(=O)c1cnc(N[C@@H]2CCCC[C@@H]2N)nc1Nc1cccc(-n2nccn2)c1
In short: as §1

[8] = compound: NC1(c2ccc(-c3nc4ccn5c(=O)[nH]nc5c4cc3-c3ccccc3)cc2)CCC1
In short: as §1

[9] = compound: NCC(=O)Nc1ccc(-n2nc(C(F)(F)F)cc2-c2ccc3c(ccc4ccccc43)c2)cc1
In short: as §1

entinostat = compound: Nc1ccccc1NC(=O)c1ccc(CNC(=O)OCc2cccnc2)cc1 [entinostat]
In short: as §1

vorinostat = compound: O=C(CCCCCCC(=O)Nc1ccccc1)NO [vorinostat]
In short: as §1

citarinostat = compound: O=C(CCCCCCNC(=O)c1cnc(N(c2ccccc2)c2ccccc2Cl)nc1)NO [citarinostat]
In short: as §1

silmitasertib = compound: O=C(O)c1ccc2c(c1)nc(Nc1cccc(Cl)c1)c1ccncc12 [silmitasertib]
In short: as §1

[10] = compound: O=C1NC(=O)C(c2cnc3ccccn23)=C1c1cn2c3c(cc(F)cc13)CN(C(=O)N1CCCCC1)CC2
In short: as §1

[11] = compound: c1cc(OCCN2CCCCC2)cc(-c2n[nH]c3ccc(-c4nnc[nH]4)cc23)c1
In short: as §1

Row | Target | log2 fold change (bafetinib) | log2 fold change [1] | log2 fold change (nilotinib) | log2 fold change [2] | log2 fold change (dasatinib) | log2 fold change [3] | log2 fold change [4] | log2 fold change [5] | log2 fold change (tipifarnib) | log2 fold change (mubritinib) | log2 fold change [6] | log2 fold change [7] | log2 fold change [8] | log2 fold change [9] | log2 fold change (entinostat) | log2 fold change (vorinostat) | log2 fold change (citarinostat) | log2 fold change (silmitasertib) | log2 fold change [10] | log2 fold change [11]
1 | RELN (UniProt P78509) | inactive: 0 | inactive: -0.042 | inactive: -0.008 | inactive: -0.03 | inactive: 0.002 | inactive: 0.914 | inactive: 0.021 | inactive: -0.027 | inactive: 0.129 | inactive: -0.116 | inactive: 0 | inactive: -0.062 | inactive: 0.021 | inactive: 0.113 | inactive: 0.039 | inactive: 0.042 | inactive: 0.022 | inactive: 0.07 | inactive: 0.039 | inactive: -0.093
2 | RNF181 (UniProt Q9P0P0) | inactive: -0.053 | inactive: -0.1 | inactive: 0.068 | inactive: -0.06 | inactive: 0.105 | inactive: -0.006 | inactive: 0.051 | inactive: 0.027 | inactive: -0.008 | inactive: 0.039 | inactive: -0.032 | inactive: 0.038 | inactive: 0.025 | inactive: 0.03 | inactive: -0.021 | inactive: 0.021 | inactive: 0.014 | inactive: -0.005 | inactive: -0.044 | inactive: 0.01
3 | RIC8A isoform 3 (UniProt Q9NPQ8) | inactive: 0.042 | inactive: -0.062 | inactive: -0.041 | inactive: -0.043 | inactive: -0.108 | inactive: 0.088 | inactive: 0.03 | inactive: 0.014 | inactive: -0.1 | inactive: -0.095 | inactive: -0.035 | inactive: -0.154 | inactive: -0.126 | inactive: -0.088 | inactive: 0.192 | inactive: 0.058 | inactive: 0.12 | inactive: -0.005 | inactive: 0.084 | inactive: -0.096
4 | RETREG3 (UniProt Q86VR2) | inactive: -0.164 | inactive: -0.032 | inactive: 0.015 | inactive: 0.003 | inactive: -0.045 | inactive: 0.033 | inactive: -0.007 | inactive: 0.11 | inactive: -0.034 | inactive: 0 | inactive: 0.046 | inactive: -0.033 | inactive: -0.047 | inactive: 0.048 | inactive: 0.007 | inactive: -0.045 | inactive: 0.003 | inactive: 0.04 | inactive: -0.086 | inactive: -0.03
5 | RHAG (UniProt Q02094) | inactive: 0.047 | inactive: 0.017 | inactive: -0.042 | inactive: -0.007 | inactive: 0.054 | inactive: 0.045 | inactive: -0.026 | inactive: 0.001 | inactive: -0.079 | inactive: 0.083 | inactive: -0.035 | inactive: -0.087 | inactive: -0.091 | inactive: -0.022 | inactive: 0.072 | inactive: 0.087 | inactive: 0.126 | inactive: 0.135 | inactive: 0.093 | inactive: -0.231
6 | RBM42 (UniProt Q9BTD8) | inactive: 0.085 | inactive: -0.168 | inactive: -0.029 | inactive: 0.086 | inactive: 0.069 | inactive: -0.067 | inactive: -0.105 | inactive: -0.047 | inactive: 0.076 | inactive: -0.071 | inactive: 0.053 | inactive: 0.061 | inactive: 0.126 | inactive: 0.062 | inactive: -0.03 | inactive: 0.086 | inactive: 0.011 | inactive: 0.068 | inactive: 0.09 | inactive: -0.106
7 | RNF187 (UniProt Q5TA31) | inactive: 0.009 | inactive: 0.088 | inactive: 0.029 | inactive: -0.041 | inactive: 0.022 | inactive: -0.001 | inactive: -0.105 | inactive: 0.006 | inactive: -0.07 | inactive: 0.102 | inactive: 0.004 | inactive: -0.056 | inactive: -0.033 | inactive: 0.07 | inactive: -0.019 | inactive: 0.095 | inactive: 0.054 | inactive: 0.012 | inactive: -0.061 | inactive: 0.035
8 | RIDA (UniProt P52758) | inactive: -0.063 | inactive: -0.026 | inactive: 0.059 | inactive: 0 | inactive: 0.062 | inactive: -0.038 | inactive: 0.003 | inactive: 0.062 | inactive: -0.019 | inactive: -0.024 | inactive: -0.026 | inactive: 0.005 | inactive: 0.03 | inactive: 0.184 | inactive: -0.003 | inactive: -0.038 | inactive: 0.034 | inactive: 0.023 | inactive: -0.094 | inactive: 0.025
9 | RBPJ (UniProt Q06330) | inactive: -0.012 | inactive: -0.027 | inactive: 0.016 | inactive: -0.006 | inactive: 0 | inactive: -0.008 | inactive: -0.018 | inactive: 0.025 | inactive: 0.005 | inactive: 0.008 | inactive: -0.032 | inactive: -0.06 | inactive: -0.041 | inactive: -0.019 | inactive: -0.036 | inactive: 0.031 | inactive: 0.009 | inactive: 0.025 | inactive: 0.043 | inactive: -0.035
10 | RCL1 (UniProt Q9Y2P8) | inactive: 0.216 | inactive: 0.047 | inactive: -0.07 | inactive: 0.043 | inactive: 0.074 | inactive: 0.055 | inactive: -0.258 | inactive: -0.13 | inactive: 0.138 | inactive: -0.141 | inactive: 0.087 | inactive: 0.058 | inactive: 0.221 | inactive: 0.062 | inactive: -0.021 | inactive: 0.066 | inactive: -0.081 | inactive: 0.147 | inactive: 0.157 | inactive: -0.253
11 | RIOK1 (UniProt Q9BRS2) | inactive: -0.058 | inactive: -0.047 | inactive: 0.022 | inactive: 0.044 | inactive: 0.063 | inactive: 0.021 | inactive: -0.021 | inactive: 0 | inactive: 0.015 | inactive: 0.011 | inactive: -0.002 | inactive: 0.016 | inactive: 0.02 | inactive: 0.011 | inactive: -0.045 | inactive: -0.021 | inactive: -0.012 | inactive: -0.022 | inactive: 0.008 | inactive: -0.023
12 | RNF121 (UniProt Q9H920) | inactive: 0.063 | inactive: 0.023 | inactive: -0.008 | inactive: 0.017 | inactive: 0 | inactive: -0.042 | inactive: 0.026 | inactive: -0.166 | inactive: 0.059 | inactive: -0.031 | inactive: 0.022 | inactive: -0.124 | inactive: 0.256 | inactive: -0.047 | inactive: 0.025 | inactive: -0.022 | inactive: -0.004 | inactive: 0.006 | inactive: -0.108 | inactive: -0.066
13 | RBMX (UniProt P38159) | inactive: 0.149 | inactive: -0.051 | inactive: 0 | inactive: 0.111 | inactive: 0.204 | inactive: 0.093 | inactive: -0.201 | inactive: -0.173 | inactive: 0.177 | inactive: -0.187 | inactive: 0.059 | inactive: 0.121 | inactive: 0.336 | inactive: 0.005 | inactive: 0 | inactive: 0.021 | inactive: -0.038 | inactive: 0.077 | inactive: 0.122 | inactive: -0.274
14 | RDH10 (UniProt Q8IZV5) | inactive: -0.031 | inactive: 0.15 | inactive: 0.051 | inactive: -0.032 | active: 0.237 | inactive: -0.014 | active: 0.37 | inactive: 0.183 | inactive: 0.028 | inactive: 0.106 | inactive: -0.033 | inactive: -0.017 | inactive: -0.016 | inactive: 0.015 | inactive: 0.015 | inactive: -0.069 | inactive: -0.019 | inactive: -0.097 | inactive: -0.039 | inactive: 0.012
15 | RECQL (UniProt P46063) | inactive: 0.005 | inactive: -0.019 | inactive: 0.025 | inactive: 0.006 | inactive: -0.043 | inactive: -0.033 | inactive: 0.055 | inactive: -0.006 | inactive: -0.034 | inactive: 0.017 | inactive: 0.034 | inactive: -0.076 | inactive: -0.047 | inactive: -0.033 | inactive: 0.001 | inactive: 0.045 | inactive: 0.092 | inactive: -0.028 | inactive: -0.019 | inactive: -0.03
16 | RNF149 (UniProt Q8NC42) | inactive: 0.03 | inactive: 0.039 | inactive: -0.021 | inactive: -0.004 | inactive: -0.137 | inactive: 0.078 | inactive: -0.104 | inactive: -0.023 | inactive: 0.048 | inactive: -0.007 | inactive: -0.075 | inactive: -0.038 | inactive: 0.038 | inactive: -0.082 | inactive: -0.003 | inactive: -0.009 | inactive: 0.035 | inactive: 0.009 | inactive: -0.084 | inactive: -0.113

Part of the list above, with tabs:
Row	Target	log2 fold change (bafetinib)	log2 fold change [1]	log2 fold change (nilotinib)	log2 fold change [2]	log2 fold change (dasatinib)	log2 fold change [3]	log2 fold change [4]	log2 fold change [5]	log2 fold change (tipifarnib)	log2 fold change (mubritinib)	log2 fold change [6]	log2 fold change [7]	log2 fold change [8]	log2 fold change [9]	log2 fold change (entinostat)	log2 fold change (vorinostat)	log2 fold change (citarinostat)	log2 fold change (silmitasertib)	log2 fold change [10]	log2 fold change [11]
1	RELN (UniProt P78509)	inactive: 0	inactive: -0.042	inactive: -0.008	inactive: -0.03	inactive: 0.002	inactive: 0.914	inactive: 0.021	inactive: -0.027	inactive: 0.129	inactive: -0.116	inactive: 0	inactive: -0.062	inactive: 0.021	inactive: 0.113	inactive: 0.039	inactive: 0.042	inactive: 0.022	inactive: 0.07	inactive: 0.039	inactive: -0.093
5	RHAG (UniProt Q02094)	inactive: 0.047	inactive: 0.017	inactive: -0.042	inactive: -0.007	inactive: 0.054	inactive: 0.045	inactive: -0.026	inactive: 0.001	inactive: -0.079	inactive: 0.083	inactive: -0.035	inactive: -0.087	inactive: -0.091	inactive: -0.022	inactive: 0.072	inactive: 0.087	inactive: 0.126	inactive: 0.135	inactive: 0.093	inactive: -0.231
7	RNF187 (UniProt Q5TA31)	inactive: 0.009	inactive: 0.088	inactive: 0.029	inactive: -0.041	inactive: 0.022	inactive: -0.001	inactive: -0.105	inactive: 0.006	inactive: -0.07	inactive: 0.102	inactive: 0.004	inactive: -0.056	inactive: -0.033	inactive: 0.07	inactive: -0.019	inactive: 0.095	inactive: 0.054	inactive: 0.012	inactive: -0.061	inactive: 0.035
9	RBPJ (UniProt Q06330)	inactive: -0.012	inactive: -0.027	inactive: 0.016	inactive: -0.006	inactive: 0	inactive: -0.008	inactive: -0.018	inactive: 0.025	inactive: 0.005	inactive: 0.008	inactive: -0.032	inactive: -0.06	inactive: -0.041	inactive: -0.019	inactive: -0.036	inactive: 0.031	inactive: 0.009	inactive: 0.025	inactive: 0.043	inactive: -0.035
13	RBMX (UniProt P38159)	inactive: 0.149	inactive: -0.051	inactive: 0	inactive: 0.111	inactive: 0.204	inactive: 0.093	inactive: -0.201	inactive: -0.173	inactive: 0.177	inactive: -0.187	inactive: 0.059	inactive: 0.121	inactive: 0.336	inactive: 0.005	inactive: 0	inactive: 0.021	inactive: -0.038	inactive: 0.077	inactive: 0.122	inactive: -0.274
